{
  "sequences": {"note": "Sequences of proteins named here, by UniProt entry; tags and fusion partners are left off. A change or cut given only in a name is not applied to a line headed by its entry.", "UniProt P10721": "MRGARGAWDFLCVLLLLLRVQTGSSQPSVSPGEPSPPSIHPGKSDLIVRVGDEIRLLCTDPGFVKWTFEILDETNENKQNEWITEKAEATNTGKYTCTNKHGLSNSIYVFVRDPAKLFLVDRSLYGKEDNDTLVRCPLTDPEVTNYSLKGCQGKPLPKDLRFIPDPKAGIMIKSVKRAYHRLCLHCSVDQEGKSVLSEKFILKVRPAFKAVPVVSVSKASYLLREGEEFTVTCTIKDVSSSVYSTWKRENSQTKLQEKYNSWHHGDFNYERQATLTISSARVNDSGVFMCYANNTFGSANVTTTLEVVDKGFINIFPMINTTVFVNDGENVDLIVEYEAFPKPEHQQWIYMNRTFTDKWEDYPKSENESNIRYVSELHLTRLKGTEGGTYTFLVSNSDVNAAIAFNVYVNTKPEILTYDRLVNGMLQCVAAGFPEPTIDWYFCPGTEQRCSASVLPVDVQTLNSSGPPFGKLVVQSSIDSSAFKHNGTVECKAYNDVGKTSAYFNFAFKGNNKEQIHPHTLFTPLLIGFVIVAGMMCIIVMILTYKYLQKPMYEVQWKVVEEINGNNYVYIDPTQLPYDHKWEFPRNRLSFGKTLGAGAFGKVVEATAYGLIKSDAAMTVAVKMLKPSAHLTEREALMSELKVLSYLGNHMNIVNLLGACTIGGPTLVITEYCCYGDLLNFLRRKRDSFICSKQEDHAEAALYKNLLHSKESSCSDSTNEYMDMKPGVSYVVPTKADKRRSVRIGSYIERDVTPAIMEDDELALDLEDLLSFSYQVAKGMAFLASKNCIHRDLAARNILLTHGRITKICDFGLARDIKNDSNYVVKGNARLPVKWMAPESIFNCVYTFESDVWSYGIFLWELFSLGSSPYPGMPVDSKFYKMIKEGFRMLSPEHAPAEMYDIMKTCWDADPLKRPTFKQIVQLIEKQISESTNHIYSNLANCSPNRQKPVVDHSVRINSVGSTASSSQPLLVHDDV", "UniProt P62993": "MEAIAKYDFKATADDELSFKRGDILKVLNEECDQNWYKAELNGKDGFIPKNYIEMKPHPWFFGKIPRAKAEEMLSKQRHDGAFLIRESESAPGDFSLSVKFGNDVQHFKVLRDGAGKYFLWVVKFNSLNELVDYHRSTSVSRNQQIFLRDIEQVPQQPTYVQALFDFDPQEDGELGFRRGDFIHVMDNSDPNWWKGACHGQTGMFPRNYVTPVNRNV"},
  "source": "paper PMC10589262",
  "key": {"[1]": {"biological_target": "Mutant KIT (MT-KIT) of GIST430 cells (exon 11 in-frame deletion) (human (endogenous in GIST430)) (UniProt P10721)", "test": "co-IP; 500 µg of GIST cell lysate mixed with a KIT antibody (Cell Signaling Technology) or control IgG and protein A/G PLUS-Agarose, 4 °C overnight; washed, eluted by boiling; western blot of endogenous partners"}, "[2]": {"biological_target": "Mutant KIT (MT-KIT) of GIST430 cells (exon 11 in-frame deletion) (human (endogenous in GIST430)) (UniProt P10721)", "test": "co-IP; 500 µg of GIST cell lysate mixed with a KIT antibody (Cell Signaling Technology) or control IgG and protein A/G PLUS-Agarose, 4 °C overnight; washed, eluted by boiling; western blot of endogenous partners", "remark": "listed apart in the source"}},
  "note": "Read-outs that look alike come from different tables or passages of the source. These are yes or no findings as the source states them, for the method shown. In cells and extracts the contact can be indirect. Binding calls can cover weak binding; strength is not graded here.",
  "data": [
    {"molecule": "GRB2 (from UniProt P62993 1-217)", "values": [
      {"measurement": "binding", "setting": "[1]", "result": "binds"}
    ]},
    {"molecule": "Basic leucine zipper nuclear factor 1 (BLZF1) (protein, UniProt Q9H2G9 1-400) MTTKNLETKVTVTSSPIRGAGDGMETEEPPKSVEVTSGVQSRKHHSLQSPWKKAVPSESPGVLQLGKMLTEKAMEVKAVRILVPKAAITHDIPNKNTKVKSLGHHKGEFLGQSEGVIEPNKELSEVKNVLEKLKNSERRLLQDKEGLSNQLRVQTEVNRELKKLLVASVGDDLQYHFERLAREKNQLILENEALGRNTAQLSEQLERMSIQCDVWRSKFLASRVMADELTNSRAALQRQNRDAHGAIQDLLSEREQFRQEMIATQKLLEELLVSLQWGREQTYSPSVQPHSTAELALTNHKLAKAVNSHLLGNVGINNQKKIPSTVEFCSTPAEKMAETVLRILDPVTCKESSPDNPFFESSPTTLLATKKNIGRFHPYTRYENITFNCCNHCRGELIAL", "values": [
      {"measurement": "binding", "setting": "[2]", "result": "binds"}
    ]}
  ]
}
